# The list shows only some results of the screen, not a fair sample: it gathers tests that were run many times, whatever their T/C, doses with no T/C, and many T/C values between a quarter and a half above the control. Further doses and runs are listed elsewhere. T/C gives the treated animals as a percentage of the vehicle group. Some entries give survivors of the animals treated and no T/C: the source files T/C as zero there, which appears to mark a toxic dose or a test without result, not a measured value. Some survivor counts are full or nearly so, which does not show that the dose was tolerated: the source hardly ever lists a survival T/C far under the control, and the zero likely stands for such cases as well. Counts of survivors are from the toxicity check (mostly the fifth day) where no day follows; animals may have died later. Schedule codes are those of the source, read here as Q, the interval in days (D) or hours (H), X, the number of doses. For survival time, this PubChem deposit counts one and a half times the control or more as active, and values a quarter to a half above the control carry no call in these data; other NCI protocols may use other cut-offs. Some T/C values carry the count of animals alive at the toxicity check (mostly the fifth day); where none is given, no animal had died by that day. Some entries were tested several times; their values stand side by side, smallest first. Some schedules carry Z or #; the key to these is not given.
# System: L1210 leukemia ip in BDF1 mice, survival T/C
# Test: NCI In Vivo Anticancer Drug Screen. Data for tumor model L1210 Leukemia (intraperitoneal) in B6D2F1 (BDF1) mice
# Conditions: T/C endpoint: mean survival time, higher T/C = longer survival
smiles,measurement,setting,value
NC(=S)N/N=C/c1ccc(O)cn1,T/C,"dose: 3.13 mg/kg/injection, schedule: Q03HX024 (ip), vehicle: other",128 % of control
same,T/C,"dose: 3.13 mg/kg/injection, schedule: Q03HX024 (ip), vehicle: saline",138 % of control
same,T/C,"dose: 6.25 mg/kg/injection, schedule: Q03HX024 (ip), vehicle: Klucel (hydroxypropylcellulose) (HPC)",130 % of control
same,T/C,"dose: 6.25 mg/kg/injection, schedule: Q03HX024 (ip), vehicle: other",140 % of control
same,T/C,"dose: 6.25 mg/kg/injection, schedule: Q03HX024 (ip), vehicle: saline",125 and 144 % of control
same,T/C,"dose: 9.5 mg/kg/injection, schedule: Q01DX005 (ip), vehicle: other",136 % of control
same,T/C,"dose: 12.5 mg/kg/injection, schedule: Q03HX024 (ip), vehicle: other",137 % of control
same,T/C,"dose: 17.0 mg/kg/injection, schedule: Q03HX032 (ip), vehicle: saline with Tween-80",139 % of control
same,T/C,"dose: 18.8 mg/kg/injection, schedule: Q01DX009 (ip), vehicle: saline with Tween-80",137 % of control
same,T/C,"dose: 19.0 mg/kg/injection, schedule: Q01DX005 (ip), vehicle: other",138 % of control
same,T/C,"dose: 19.4 mg/kg/injection, schedule: Q03HX024 (ip), vehicle: saline with Tween-80",145 % of control
same,T/C,"dose: 20.0 mg/kg/injection, schedule: Q06HX016 (ip), vehicle: Klucel (hydroxypropylcellulose) (HPC)",141 % of control
same,T/C,"dose: 25.0 mg/kg/injection, schedule: Q03HX024 (ip), vehicle: other",140 and 145 % of control
same,T/C,"dose: 25.0 mg/kg/injection, schedule: Q03HX024 (ip), vehicle: saline",129 % of control
same,T/C,"dose: 30.0 mg/kg/injection, schedule: Q03HX024 (ip), vehicle: saline with Tween-80, evaluated on day 5","195, 215, 301, 381 % of control"
same,T/C,"dose: 30.0 mg/kg/injection, schedule: Q03HX024 (ip), vehicle: saline with Tween-80, evaluated on day 60",215 and 301 % of control
same,T/C,"dose: 30.0 mg/kg/injection, schedule: Q03HX032 (ip), vehicle: other","168, 204, 230, 298 % of control"
same,T/C,"dose: 30.0 mg/kg/injection, schedule: Q06HX016 (ip), vehicle: Klucel (hydroxypropylcellulose) (HPC)",141 % of control
same,T/C,"dose: 37.5 mg/kg/injection, schedule: Q01DX005 (ip), vehicle: alkali diluted with saline",141 % of control
same,T/C,"dose: 37.5 mg/kg/injection, schedule: Q01DX005 (ip), vehicle: other",130 and 140 % of control
same,T/C,"dose: 37.5 mg/kg/injection, schedule: Q01DX009 (ip), vehicle: saline with Tween-80",148 % of control
same,T/C,"dose: 38.0 mg/kg/injection, schedule: Q01DX005 (ip), vehicle: other",141 % of control
same,survivor count,"dose: 38.0 mg/kg/injection, schedule: Q01DX005 (iv), vehicle: other",3 of 5
same,T/C,"dose: 40.0 mg/kg/injection, schedule: Q01DX009 (ip), vehicle: saline with Tween-80",142 % of control
same,T/C,"dose: 44.0 mg/kg/injection, schedule: Q03HX024 (ip), vehicle: saline with Tween-80, evaluated on day 5","198, 247, 327, 528 % of control"
same,T/C,"dose: 44.0 mg/kg/injection, schedule: Q03HX024 (ip), vehicle: saline with Tween-80, evaluated on day 45",335 % of control
same,T/C,"dose: 44.0 mg/kg/injection, schedule: Q03HX024 (ip), vehicle: saline with Tween-80, evaluated on day 60",247 and 528 % of control
same,T/C,"dose: 45.0 mg/kg/injection, schedule: Q03HX032 (ip), vehicle: other","231, 296 [9 of 10 alive], 305, 354 % of control"
same,T/C,"dose: 50.0 mg/kg/injection, schedule: Q06HX016 (ip), vehicle: Klucel (hydroxypropylcellulose) (HPC)",146 % of control
same,T/C,"dose: 50.0 mg/kg/injection, schedule: Q## X024 (ip), vehicle: other",144 % of control [9 of 10 alive]
same,T/C,"dose: 60.0 mg/kg/injection, schedule: Q01DX009 (ip), vehicle: saline with Tween-80",148 % of control
same,T/C,"dose: 66.0 mg/kg/injection, schedule: Q03HX024 (ip), vehicle: saline with Tween-80, evaluated on day 5","97, 133, 135, 197 % of control"
same,T/C,"dose: 66.0 mg/kg/injection, schedule: Q03HX024 (ip), vehicle: saline with Tween-80, evaluated on day 45",116 % of control
same,T/C,"dose: 66.0 mg/kg/injection, schedule: Q03HX024 (ip), vehicle: saline with Tween-80, evaluated on day 60",135 and 197 % of control
same,T/C,"dose: 75.0 mg/kg/injection, schedule: Q01DX005 (ip), vehicle: alkali diluted with saline",137 % of control
same,T/C,"dose: 75.0 mg/kg/injection, schedule: Q01DX005 (ip), vehicle: other, evaluated on day 30","145, 156, 164 % of control"
same,T/C,"dose: 75.0 mg/kg/injection, schedule: Q01DX005 (ip), vehicle: other, evaluated on day 40",163 % of control
same,survivor count,"dose: 75.0 mg/kg/injection, schedule: Q01DX005 (iv), vehicle: other",1 of 5
same,T/C,"dose: 75.0 mg/kg/injection, schedule: Q## X008 (ip), vehicle: other",137 % of control
same,T/C,"dose: 75.0 mg/kg/injection, schedule: Q## X016 (ip), vehicle: other",147 % of control
same,survivor count,"dose: 99.0 mg/kg/injection, schedule: Q03HX024 (ip), vehicle: saline with Tween-80",10 of 10
same,T/C,"dose: 100.0 mg/kg/injection, schedule: Q01DX009 (oral), vehicle: carboxymethylcellulose (CMC)",134 % of control
same,survivor count,"dose: 100.0 mg/kg/injection, schedule: Q03HX024 (ip), vehicle: alkali diluted with saline",3 of 10
same,T/C,"dose: 100.0 mg/kg/injection, schedule: Q03HX024 (ip), vehicle: other",142 % of control
same,T/C,"dose: 100.0 mg/kg/injection, schedule: Q## X003 (ip), vehicle: other",139 % of control
same,T/C,"dose: 120.0 mg/kg/injection, schedule: Q01DX009 (ip), vehicle: saline",147 % of control
same,T/C,"dose: 140.0 mg/kg/injection, schedule: Q01DX009 (ip), vehicle: saline",136 % of control
same,T/C,"dose: 150.0 mg/kg/injection, schedule: Q01DX005 (ip), vehicle: alkali diluted with saline",138 % of control
same,T/C,"dose: 150.0 mg/kg/injection, schedule: Q01DX005 (ip), vehicle: other, evaluated on day 30","154, 156, 167 % of control"
same,T/C,"dose: 150.0 mg/kg/injection, schedule: Q01DX005 (ip), vehicle: other, evaluated on day 40",168 % of control [9 of 10 alive]
same,survivor count,"dose: 150.0 mg/kg/injection, schedule: Q01DX005 (iv), vehicle: other",0 of 5
same,survivor count,"dose: 150.0 mg/kg/injection, schedule: Q03HX008 (ip), vehicle: alkali diluted with saline",5 of 10
same,survivor count,"dose: 150.0 mg/kg/injection, schedule: Q03HX016 (ip), vehicle: alkali diluted with saline",2 of 10
same,T/C,"dose: 150.0 mg/kg/injection, schedule: Q03HX024 (ip), vehicle: other",131 % of control
same,survivor count,"dose: 150.0 mg/kg/injection, schedule: Q03HX024 (ip), vehicle: saline",8 of 8
same,T/C,"dose: 200.0 mg/kg/injection, schedule: Q01DX001 (ip), vehicle: saline",129 % of control
